These are yes or no findings as the source states them, for the method shown. For some assays here: Binding calls can cover weak binding; strength is not graded here. For some assays here: Binding seen in cells or lysates may run through a third protein.

Amino acid sequences for entries named in this document (tags omitted). A change or cut given only in a name is not applied to a line headed by its entry.
UniProt P18206: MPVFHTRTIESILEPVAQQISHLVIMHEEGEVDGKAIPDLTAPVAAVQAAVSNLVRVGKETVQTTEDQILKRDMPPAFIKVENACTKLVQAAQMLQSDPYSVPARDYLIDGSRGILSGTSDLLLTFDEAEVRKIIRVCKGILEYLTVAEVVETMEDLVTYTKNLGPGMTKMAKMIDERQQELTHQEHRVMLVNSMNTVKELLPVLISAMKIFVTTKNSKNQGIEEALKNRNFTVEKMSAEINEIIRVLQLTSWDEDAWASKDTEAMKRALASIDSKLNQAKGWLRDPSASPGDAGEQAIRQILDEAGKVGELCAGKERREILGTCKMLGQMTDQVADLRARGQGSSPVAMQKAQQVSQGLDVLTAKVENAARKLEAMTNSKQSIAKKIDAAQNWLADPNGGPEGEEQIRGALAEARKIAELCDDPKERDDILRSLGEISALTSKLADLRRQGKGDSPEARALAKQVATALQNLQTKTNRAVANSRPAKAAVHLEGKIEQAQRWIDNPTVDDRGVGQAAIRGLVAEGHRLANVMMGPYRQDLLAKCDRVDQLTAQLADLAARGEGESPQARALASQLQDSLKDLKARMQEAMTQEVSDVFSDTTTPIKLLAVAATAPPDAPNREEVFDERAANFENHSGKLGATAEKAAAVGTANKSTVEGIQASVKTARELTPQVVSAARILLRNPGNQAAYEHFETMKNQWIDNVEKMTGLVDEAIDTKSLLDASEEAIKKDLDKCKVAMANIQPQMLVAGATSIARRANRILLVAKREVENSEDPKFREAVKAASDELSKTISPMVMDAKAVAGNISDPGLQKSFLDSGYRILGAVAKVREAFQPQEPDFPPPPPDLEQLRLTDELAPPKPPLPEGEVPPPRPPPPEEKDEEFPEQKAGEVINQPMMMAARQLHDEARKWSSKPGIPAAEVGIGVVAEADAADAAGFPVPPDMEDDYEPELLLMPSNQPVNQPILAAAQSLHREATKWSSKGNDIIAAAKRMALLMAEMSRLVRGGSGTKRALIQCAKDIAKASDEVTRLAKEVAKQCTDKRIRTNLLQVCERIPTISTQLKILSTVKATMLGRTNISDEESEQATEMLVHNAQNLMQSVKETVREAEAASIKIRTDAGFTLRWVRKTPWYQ
UniProt O60603: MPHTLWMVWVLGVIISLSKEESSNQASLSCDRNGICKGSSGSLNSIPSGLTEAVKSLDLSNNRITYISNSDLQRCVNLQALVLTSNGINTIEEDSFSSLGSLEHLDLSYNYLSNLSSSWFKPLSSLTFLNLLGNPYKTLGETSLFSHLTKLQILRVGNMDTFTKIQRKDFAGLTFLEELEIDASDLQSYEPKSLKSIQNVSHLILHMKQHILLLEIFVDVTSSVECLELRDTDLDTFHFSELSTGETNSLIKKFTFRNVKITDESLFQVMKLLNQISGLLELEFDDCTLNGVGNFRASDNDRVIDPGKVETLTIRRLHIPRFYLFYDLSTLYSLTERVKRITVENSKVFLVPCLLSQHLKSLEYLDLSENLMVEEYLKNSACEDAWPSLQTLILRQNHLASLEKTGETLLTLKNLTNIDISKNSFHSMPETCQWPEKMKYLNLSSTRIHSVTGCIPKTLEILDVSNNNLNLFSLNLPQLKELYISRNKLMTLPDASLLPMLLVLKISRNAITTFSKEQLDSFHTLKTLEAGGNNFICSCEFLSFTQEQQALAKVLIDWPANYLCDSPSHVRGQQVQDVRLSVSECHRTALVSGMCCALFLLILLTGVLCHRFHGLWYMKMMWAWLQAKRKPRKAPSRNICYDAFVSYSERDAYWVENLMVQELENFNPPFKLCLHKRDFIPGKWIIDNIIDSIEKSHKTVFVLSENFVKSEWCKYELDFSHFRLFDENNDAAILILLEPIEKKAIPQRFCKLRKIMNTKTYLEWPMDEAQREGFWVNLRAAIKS
UniProt P27986: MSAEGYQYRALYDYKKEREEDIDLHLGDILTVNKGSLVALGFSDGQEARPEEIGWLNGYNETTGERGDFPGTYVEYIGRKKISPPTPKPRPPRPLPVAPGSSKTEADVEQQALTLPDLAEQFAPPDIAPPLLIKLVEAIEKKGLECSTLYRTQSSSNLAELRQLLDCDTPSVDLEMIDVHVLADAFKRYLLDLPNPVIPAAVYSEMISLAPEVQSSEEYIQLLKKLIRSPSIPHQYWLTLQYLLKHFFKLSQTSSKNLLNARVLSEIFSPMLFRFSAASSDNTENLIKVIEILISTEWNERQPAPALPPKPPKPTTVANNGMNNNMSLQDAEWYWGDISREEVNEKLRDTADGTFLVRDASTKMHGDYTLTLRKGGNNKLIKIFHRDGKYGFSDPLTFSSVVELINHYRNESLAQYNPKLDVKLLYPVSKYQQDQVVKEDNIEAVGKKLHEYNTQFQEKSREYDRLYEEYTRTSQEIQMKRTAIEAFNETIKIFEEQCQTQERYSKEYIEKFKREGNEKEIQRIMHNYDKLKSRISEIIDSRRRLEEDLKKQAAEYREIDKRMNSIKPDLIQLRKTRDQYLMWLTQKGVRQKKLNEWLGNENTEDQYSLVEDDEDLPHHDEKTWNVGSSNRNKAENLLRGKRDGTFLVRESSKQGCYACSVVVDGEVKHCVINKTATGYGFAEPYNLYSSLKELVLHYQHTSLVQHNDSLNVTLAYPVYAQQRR

The text below walks through data of article PMC10112799.

For assay [1], the target named is Vinculin (VCL), endogenous (human (endogenous in THP1 and in primary human macrophages)) (UniProt P18206). Description: co-IP; differentiated THP1 macrophages at steady state (not infected); VCL immunoprecipitated, eluates immunoblotted for PI3K p85α.
Assay [2] deals with TLR2-Cub-TF bait (wild type) (UniProt O60603). Description: two-hybrid; Mammalian Membrane Two-Hybrid (MaMTH, split ubiquitin); TLR2-Cub-TF bait and Nub preys co-transfected in HEK293T 5xGAL4UAS-luciferase reporter cells; untreated, PAM, or P. gingivalis MOI 10 for 8 h; luciferase read-out. On the technique in general: A reporter such as luciferase makes a cellular process visible.

The target in assay [3] is Toll-Like Receptor 2 (TLR2), native (human (endogenous in THP1 and in primary human macrophages)) (UniProt O60603). The assay can be described thus: co-IP; THP1 macrophages, control or infected with P. gingivalis MOI 10 for 30 min, cross-linked with DSP; TLR2 immunoprecipitated, eluates (glycine pH 2.5) immunoblotted for VCL. On the technique in general: Immunoblotting shows a protein as a band on a membrane.

Assay [4] shares this target. Description: co-IP; differentiated THP1 cells stimulated with P. gingivalis MOI 10 for the indicated times, no DSP cross-linker; TLR2 immunoprecipitated, eluates immunoblotted for VCL and TLR2.
For assay [5] the target is unchanged. Description: co-IP; primary human PBMC-derived macrophages, control or infected with P. gingivalis MOI 10 for 30 min, cross-linked with DSP; TLR2 immunoprecipitated, boiled beads immunoblotted for VCL.

Take “PI3K p85α, endogenous (from UniProt P27986 1-724)”: the binding result in assay [1] is “binds”. On to VCL-Nub prey (from UniProt P18206-2), for which, in assay [2], the binding result was “binds”. With “Vinculin (VCL), endogenous (from UniProt P18206-2)”, the binding result was “binds” in assay [3], “no binding (only without the DSP cross-linker)” in assay [4] and “binds” in assay [5].
